From patent US20250122255A1
Results are given in words; binding and its absence hold for the method and conditions named. In cells and extracts the contact can be indirect. Binding calls can cover weak binding; strength is not graded here.

Legend:
HLA-I A*68:01 (human) = assay: HLA-I immunopeptidomics: W6/32 pulldown from DAC-treated SKOV3ip1 cells, LC-MS/MS
HLA-I A*03:01 (human) [1] = assay: as above
HLA-I A*03:01 (human) [2] = assay: HLA-I immunopeptidomics: W6/32 pulldown from 59M cells, peptide elution, LC-MS/MS
HLA-I A*11:01 (human) = assay: as above

Row | Binder | binding (HLA-I A*68:01 (human)) | binding (HLA-I A*03:01 (human) [1]) | binding (HLA-I A*03:01 (human) [2]) | binding (HLA-I A*11:01 (human))
1 | GVQGPTAVR [CT45 peptide … (SEQ ID NO:2)] | binds | binds | binds | binds
2 | QGPTAVRK [CT45 peptide QGPTAVRK (SEQ ID NO:5)] |  |  | binds | binds
3 | AVDPETVFK [CT45 peptide … (SEQ ID NO:1)] |  |  | binds | binds

More lines, now with the values ahead:

Row | binding (HLA-I A*68:01 (human)) | binding (HLA-I A*03:01 (human) [1]) | binding (HLA-I A*03:01 (human) [2]) | binding (HLA-I A*11:01 (human)) | Binder
4 | binds | binds |  |  | EGVQGPTAVR [CT45 peptide … (SEQ ID NO:32)]
5 | binds | binds |  |  | VAVDPETVFKR [CT45 peptide … (SEQ ID NO:33)]
6 |  |  | binds | binds | VQGPTAVRK [CT45 peptide … (SEQ ID NO:4)]
7 |  |  | binds |  | GVQGPTAVRK [CT45 peptide … (SEQ ID NO:3)]
